Source: publication PMC13473141
Results are given in words; binding and its absence hold for the method and conditions named. In cells and extracts the contact can be indirect. Some entries that bind do so weakly or less than the wild type. For some of these results: Sequences can lack the tags named with a protein. Each block holds one molecule with its values, some of them ahead of it.

By UniProt entry, the sequences of proteins in these tests, tags left out.
UniProt Q93009: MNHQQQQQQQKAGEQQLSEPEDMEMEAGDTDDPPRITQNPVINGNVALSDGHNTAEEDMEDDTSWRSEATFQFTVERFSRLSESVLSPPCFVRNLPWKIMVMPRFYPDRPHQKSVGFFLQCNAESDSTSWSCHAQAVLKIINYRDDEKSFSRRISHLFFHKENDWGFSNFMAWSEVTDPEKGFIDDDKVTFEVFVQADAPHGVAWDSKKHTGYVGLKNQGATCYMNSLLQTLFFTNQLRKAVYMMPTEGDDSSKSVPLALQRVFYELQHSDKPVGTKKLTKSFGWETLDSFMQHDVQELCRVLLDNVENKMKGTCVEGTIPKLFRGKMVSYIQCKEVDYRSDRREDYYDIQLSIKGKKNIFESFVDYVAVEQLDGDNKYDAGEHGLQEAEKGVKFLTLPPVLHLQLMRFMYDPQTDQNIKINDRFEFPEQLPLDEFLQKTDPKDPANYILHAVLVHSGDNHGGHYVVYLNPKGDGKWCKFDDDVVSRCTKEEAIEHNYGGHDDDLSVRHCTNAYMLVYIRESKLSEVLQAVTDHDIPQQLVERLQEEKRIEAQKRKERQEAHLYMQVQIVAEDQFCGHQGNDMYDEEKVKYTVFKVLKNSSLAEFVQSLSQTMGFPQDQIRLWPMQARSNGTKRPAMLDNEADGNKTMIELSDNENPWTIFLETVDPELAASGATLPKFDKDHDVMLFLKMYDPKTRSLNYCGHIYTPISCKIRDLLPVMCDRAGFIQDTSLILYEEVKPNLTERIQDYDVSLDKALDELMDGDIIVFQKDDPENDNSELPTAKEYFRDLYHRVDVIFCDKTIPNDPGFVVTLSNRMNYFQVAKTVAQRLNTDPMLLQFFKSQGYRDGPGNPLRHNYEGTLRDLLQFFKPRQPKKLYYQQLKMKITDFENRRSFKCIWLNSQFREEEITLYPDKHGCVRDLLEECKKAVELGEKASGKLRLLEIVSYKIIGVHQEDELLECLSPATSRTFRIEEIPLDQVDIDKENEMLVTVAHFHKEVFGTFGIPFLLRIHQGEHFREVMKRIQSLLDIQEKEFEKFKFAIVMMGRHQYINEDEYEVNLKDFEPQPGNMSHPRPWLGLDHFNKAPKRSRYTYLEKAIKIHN
UniProt Q9NXR7: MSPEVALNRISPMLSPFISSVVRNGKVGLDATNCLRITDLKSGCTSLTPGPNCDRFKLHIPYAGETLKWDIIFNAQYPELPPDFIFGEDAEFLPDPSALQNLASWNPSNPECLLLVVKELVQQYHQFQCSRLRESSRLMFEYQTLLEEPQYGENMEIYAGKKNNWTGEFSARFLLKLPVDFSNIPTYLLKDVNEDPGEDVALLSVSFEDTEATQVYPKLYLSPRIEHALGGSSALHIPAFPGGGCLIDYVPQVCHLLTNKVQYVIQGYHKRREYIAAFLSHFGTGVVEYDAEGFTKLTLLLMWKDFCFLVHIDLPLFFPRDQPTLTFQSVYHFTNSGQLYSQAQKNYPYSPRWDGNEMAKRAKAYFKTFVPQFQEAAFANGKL
UniProt Q9NWV8: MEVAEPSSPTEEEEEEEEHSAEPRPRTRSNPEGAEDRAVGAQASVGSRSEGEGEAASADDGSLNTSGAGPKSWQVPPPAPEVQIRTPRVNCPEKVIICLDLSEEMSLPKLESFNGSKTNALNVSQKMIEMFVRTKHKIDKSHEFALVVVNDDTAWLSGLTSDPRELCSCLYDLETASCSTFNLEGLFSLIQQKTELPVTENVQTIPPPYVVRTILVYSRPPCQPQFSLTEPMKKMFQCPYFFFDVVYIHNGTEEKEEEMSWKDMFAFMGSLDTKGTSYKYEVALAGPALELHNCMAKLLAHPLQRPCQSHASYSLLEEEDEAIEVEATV
UniProt P46736: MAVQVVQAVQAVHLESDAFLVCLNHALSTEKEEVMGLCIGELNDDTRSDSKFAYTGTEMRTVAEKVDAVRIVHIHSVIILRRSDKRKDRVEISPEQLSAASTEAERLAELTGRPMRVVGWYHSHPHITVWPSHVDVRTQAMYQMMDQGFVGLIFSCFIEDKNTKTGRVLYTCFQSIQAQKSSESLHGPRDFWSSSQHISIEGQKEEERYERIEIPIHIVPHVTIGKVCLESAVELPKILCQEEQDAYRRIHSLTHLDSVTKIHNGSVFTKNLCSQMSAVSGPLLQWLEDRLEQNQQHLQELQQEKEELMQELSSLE

Experiments:
FLAG-TOPORS [1] = target: T1, FLAG-TOPORS (UniProt Q9NS56); test: co-IP; HEK293T transfected with FLAG-TOPORS or empty vector for 24 h; FLAG immunoprecipitated; eluates analysed by Western blot for endogenous proteins
T1 sequence: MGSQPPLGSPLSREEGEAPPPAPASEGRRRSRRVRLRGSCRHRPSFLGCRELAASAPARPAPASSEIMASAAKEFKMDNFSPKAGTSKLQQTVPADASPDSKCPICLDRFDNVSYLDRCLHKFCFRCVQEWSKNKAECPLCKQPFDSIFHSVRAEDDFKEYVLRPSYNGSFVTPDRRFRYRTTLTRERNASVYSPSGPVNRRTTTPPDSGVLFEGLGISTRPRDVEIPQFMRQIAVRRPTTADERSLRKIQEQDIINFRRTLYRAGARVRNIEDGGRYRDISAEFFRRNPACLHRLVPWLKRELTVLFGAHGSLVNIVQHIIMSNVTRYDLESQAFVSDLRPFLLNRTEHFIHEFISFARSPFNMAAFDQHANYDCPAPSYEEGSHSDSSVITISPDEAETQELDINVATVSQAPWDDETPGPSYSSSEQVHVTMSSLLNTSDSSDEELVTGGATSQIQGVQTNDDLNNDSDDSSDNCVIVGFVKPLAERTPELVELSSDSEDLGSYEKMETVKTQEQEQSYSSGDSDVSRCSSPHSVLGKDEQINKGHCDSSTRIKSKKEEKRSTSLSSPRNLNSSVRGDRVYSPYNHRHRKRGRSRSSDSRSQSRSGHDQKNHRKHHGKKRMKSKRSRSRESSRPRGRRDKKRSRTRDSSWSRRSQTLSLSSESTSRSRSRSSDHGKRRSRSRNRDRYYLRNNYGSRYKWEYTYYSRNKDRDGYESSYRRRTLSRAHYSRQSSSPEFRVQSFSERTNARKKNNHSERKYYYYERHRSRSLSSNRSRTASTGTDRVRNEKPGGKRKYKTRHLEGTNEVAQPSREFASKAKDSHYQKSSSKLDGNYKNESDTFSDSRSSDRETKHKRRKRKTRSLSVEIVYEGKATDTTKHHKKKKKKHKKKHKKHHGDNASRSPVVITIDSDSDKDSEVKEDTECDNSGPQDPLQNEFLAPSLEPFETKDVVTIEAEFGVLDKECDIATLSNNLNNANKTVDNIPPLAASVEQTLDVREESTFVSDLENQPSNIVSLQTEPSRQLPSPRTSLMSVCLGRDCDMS

FLAG-TOPORS [2] = target: T1, FLAG-TOPORS; test: co-IP; HEK293T transfected with Flag-TOPORS, Myc-USP7 or both (48 h); NETN lysis buffer; Flag or Myc beads, 1 h at 4 °C; Western blot
[3] = target: T2, TOPORS (endogenous) (human (endogenous in cells that are not named; all cell lines of the paper are human)) (UniProt Q9NS56); test: co-IP; endogenous IP of TOPORS, blotted for the endogenous partners (Supplementary Fig. 5C); cells not named
T2 sequence: T1 sequence

Myc-USP7 = Myc-USP7 (UniProt Q93009); test: co-IP; HEK293T transfected with Flag-TOPORS, Myc-USP7 or both (48 h); NETN lysis buffer; Flag or Myc beads, 1 h at 4 °C; Western blot

Molecule: BRE/BRCC45 (from UniProt Q9NXR7 1-383)
- binding (FLAG-TOPORS [1]): binds

Molecule: USP7 (endogenous) (from UniProt Q93009 1-1102) (enzyme)
- binding [3]: binds

B1: RAP80 (protein, UniProt Q96RL1 1-719)
chain: MPRRKKKVKEVSESRNLEKKDVETTSSVSVKRKRRLEDAFIVISDSDGEEPKEENGLQKTKTKQSNRAKCLAKRKIAQMTEEEQFALALKMSEQEAREVNSQEEEEEELLRKAIAESLNSCRPSDASATRSRPLATGPSSQSHQEKTTDSGLTEGIWQLVPPSLFKGSHISQGNEAEEREEPWDHTEKTEEEPVSGSSGSWDQSSQPVFENVNVKSFDRCTGHSAEHTQCGKPQESTGRGSAFLKAVQGSGDTSRHCLPTLADAKGLQDTGGTVNYFWGIPFCPDGVDPNQYTKVILCQLEVYQKSLKMAQRQLLNKKGFGEPVLPRPPSLIQNECGQGEQASEKNECISEDMGDEDKEERQESRASDWHSKTKDFQESSIKSLKEKLLLEEEPTTSHGQSSQGIVEETSEEGNSVPASQSVAALTSKRSLVLMPESSAEEITVCPETQLSSSETFDLEREVSPGSRDILDGVRIIMADKEVGNKEDAEKEVAISTFSSSNQVSCPLCDQCFPPTKIERHAMYCNGLMEEDTVLTRRQKEAKTKSDSGTAAQTSLDIDKNEKCYLCKSLVPFREYQCHVDSCLQLAKADQGDGPEGSGRACSTVEGKWQQRLKNPKEKGHSEGRLLSFLEQSEHKTSDADIKSSETGAFRVPSPGMEEAGCSREMQSSFTRRDLNESPVKSFVSISEATDCLVDFKKQVTVQPGSRTRTKAGRGRRRKF
- binding (FLAG-TOPORS [1]): binds

B2: FLAG-TOPORS (enzyme, UniProt Q9NS56 1-1045)
chain: T1 sequence
- binding (Myc-USP7): binds

Next, values leading:

- binding (FLAG-TOPORS [1]): binds
Molecule: BABAM1/NBA1/MERIT40 (from UniProt Q9NWV8 1-329)

- binding (FLAG-TOPORS [1]): binds
Molecule: BRCC3/BRCC36 (from UniProt P46736 1-316) (enzyme)

- binding (FLAG-TOPORS [2]): binds
Molecule: Myc-USP7 (from UniProt Q93009 1-1102) (enzyme)
